Results deposited as PubChem BioAssay AID1259282 (Sanger Institute, 2017)
The deposit covers 794 reagents; this is an unselected part. 11 of all reagents (1.4%) count as active. 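Calls flag knock-downs that lower viability without drug; drug synergy appears only in the synergy scores; exposure time not stated.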 Viability is capped at 1. Further read-outs or replicates are left out here. Not given: the amount of reagent, the time to read-out.

- Purpose: 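siRNA screen across the kinome seeking drug combinations lethal to colorectal cancer cells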 (primary screen)
- Cell system: DIFI human colorectal cancer cell line
- Reagent: siRNA pool against human genes
- Challenge: anchor drug at a mild dose (BYL719 1 µM, cetuximab 5 µg/ml, trametinib 10 nM) or DMSO vehicle; exposure time not given
- Read-out: 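Viability relative to non-targeting pool wells, replicate mean, in DMSO or low-dose BYL719, cetuximab or trametinib; robust z-score without drug; synergy score per drug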
- Direction: robust z-score, knock-down alone: higher = more viable cells than typical knock-down; viability, knock-down alone: higher = more viable cells
- Hit rule: 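Essential when the robust z-score of the knock-down without drug falls below -3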
- Meaning of the calls: active = essential (knock-down alone, z below -3); inactive = not essential

target gene | PubChem SID | robust z-score, knock-down alone | viability, knock-down alone (fraction of control) | activity call
MAP2K1 (GeneID 5604) | SID56478687 | 0.444 | 0.961 | inactive
BMPR2 (GeneID 659) | SID135620969 | -0.0474 | 0.889 | inactive
STK35 (GeneID 140901) | SID135620978 | 0.715 | 1 | inactive
PKIB (GeneID 5570) | SID56479212 | 0.233 | 0.93 | inactive
PRKDC (GeneID 5591) | SID56478960 | 0.108 | 0.912 | inactive
MAP4K5 (GeneID 11183) | SID56478702 | 0.542 | 0.975 | inactive
CDKL5 (GeneID 6792) | SID135620888 | 0.715 | 1 | inactive
GUK1 (GeneID 2987) | SID152156775 | 0.398 | 0.954 | inactive
CDC42BPA (GeneID 8476) | SID152147424 | -0.948 | 0.758 | inactive
EGFR (GeneID 1956) | SID135620613 | -3.54 | 0.382 | active
DCLK1 (GeneID 9201) | SID56478913 | 0.715 | 1 | inactive
ULK1 (GeneID 8408) | SID56478976 | -0.169 | 0.872 | inactive
RIPK3 (GeneID 11035) | SID152154350 | 0.715 | 1 | inactive
ITK (GeneID 3702) | SID135620623 | 0.715 | 1 | inactive
NME4 (GeneID 4833) | SID56479075 | 0.715 | 1 | inactive
ALDH18A1 (GeneID 5832) | SID152152799 | 0.715 | 1 | inactive
SMAD2 (GeneID 4087) | SID152156776 | -1.37 | 0.698 | inactive
AKT3 (GeneID 10000) | SID56478465 | 0.133 | 0.915 | inactive
HCK (GeneID 3055) | SID135620622 | 0.715 | 1 | inactive
BRSK2 (GeneID 9024) | SID152155603 | 0.632 | 0.988 | inactive
POLR2B (GeneID 5431) | SID134315545 | -2.64 | 0.513 | inactive
NRAS (GeneID 4893) | SID134310164 | 0.715 | 1 | inactive
NUAK1 (GeneID 9891) | SID56478923 | -0.384 | 0.84 | inactive
LMTK1 (GeneID 9625) | SID152151616 | -2.55 | 0.525 | inactive
PTK2B (GeneID 2185) | SID56478543 | -0.459 | 0.83 | inactive
MARK2 (GeneID 2011) | SID152148068 | 0.715 | 1 | inactive
MAST1 (GeneID 22983) | SID135620865 | 0.715 | 1 | inactive
CDKN1B (GeneID 1027) | SID56478655 | 0.696 | 0.997 | inactive
TYK2 (GeneID 7297) | SID135620633 | 0.715 | 1 | inactive
STAG2 (GeneID 10735) | SID152146952 | 0.715 | 1 | inactive
WNK4 (GeneID 65266) | SID56478961 | 0.715 | 1 | inactive
TJP2 (GeneID 9414) | SID135621862 | 0.715 | 1 | inactive
STKLD1 (GeneID 169436) | SID152151495 | -0.887 | 0.767 | inactive
TRPM6 (GeneID 140803) | SID56478975 | 0.715 | 1 | inactive
NIM1K (GeneID 167359) | SID56478948 | 0.633 | 0.988 | inactive
PPP2R1A (GeneID 5518) | SID135621908 | 0.715 | 1 | inactive
DGKA (GeneID 1606) | SID152151940 | -1.56 | 0.669 | inactive
VRK3 (GeneID 51231) | SID135620981 | 0.715 | 1 | inactive
CKS1B (GeneID 1163) | SID56478807 | 0.399 | 0.954 | inactive
DGKK (GeneID 139189) | SID135624472 | 0.548 | 0.976 | inactive
DBF4 (GeneID 10926) | SID135620786 | 0.715 | 1 | inactive
PAK1 (GeneID 5058) | SID135620692 | -0.684 | 0.797 | inactive
RPS6KA4 (GeneID 8986) | SID152147672 | 0.46 | 0.963 | inactive
EEF2K (GeneID 29904) | SID152154873 | -0.586 | 0.811 | inactive
CDKL2 (GeneID 8999) | SID152156267 | -0.622 | 0.806 | inactive
NADK (GeneID 65220) | SID152150245 | 0.715 | 1 | inactive
PRPS2 (GeneID 5634) | SID152153546 | -0.02 | 0.893 | inactive
CDC42BPB (GeneID 9578) | SID152149037 | 0.715 | 1 | inactive
MAP4K4 (GeneID 9448) | SID56478747 | 0.715 | 1 | inactive
MAP3K13 (GeneID 9175) | SID56478694 | 0.715 | 1 | inactive
EFNA4 (GeneID 1945) | SID134312013 | -2.11 | 0.59 | inactive
GK2 (GeneID 2712) | SID56479273 | 0.324 | 0.943 | inactive
PIK3C2B (GeneID 5287) | SID56479135 | 0.715 | 1 | inactive
STK10 (GeneID 6793) | SID56478780 | -0.0162 | 0.894 | inactive
PRKY (GeneID 5616) | SID135620861 | -0.161 | 0.873 | inactive
PANK1 (GeneID 53354) | SID56478765 | 0.715 | 1 | inactive
IGF1R (GeneID 3480) | SID152153009 | 0.715 | 1 | inactive
SMG1 (GeneID 23049) | SID152155844 | 0.715 | 1 | inactive
SRPK3 (GeneID 26576) | SID135620894 | 0.534 | 0.974 | inactive
PKN1 (GeneID 5585) | SID56478783 | 0.715 | 1 | inactive
STK32B (GeneID 55351) | SID56478812 | -0.0248 | 0.893 | inactive
CSK (GeneID 1445) | SID56478490 | 0.715 | 1 | inactive
PFKM (GeneID 5213) | SID56479129 | 0.715 | 1 | inactive

Single entries from the entries so far.
TYK2 (GeneID 7297) [SID135620633], robust z-score, knock-down alone = 0.715
Entry for CDKL2 (GeneID 8999) [SID152156267] under “viability, knock-down alone (fraction of control)”: 0.806
Entry for PRPS2 (GeneID 5634) [SID152153546] under “robust z-score, knock-down alone”: -0.02
STK35 (GeneID 140901) [SID135620978], viability, knock-down alone (fraction of control): 1
Under “viability, knock-down alone (fraction of control)”, CDC42BPA (GeneID 8476) [SID152147424] has 0.758
Value of SMG1 (GeneID 23049) [SID152155844] in “activity call”: inactive
